This is one part of the list. Further columns of the screen follow, without active or inactive calls. The list favours compounds with an active or inconclusive main result. Words in brackets tell the shape of the fitted curve; partial curves, single points and poor fits give uncertain potencies.
Assay: qHTS Assay for Lipid Storage Modulators in Drosophila S3 Cells;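 as to cell number change: cells counted by Cell Tracker Red CMTPX staining in the red channel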
Settings: BODIPY lipid droplet fluorescence, 18-24 h; for cell number change: measured here: cell count max response, cells fed with added oleic acid
Procedure, shortened: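 Drosophila S3 cells got compounds at several concentrations plus oleic acid (400 uM solution). Laser-scanning cytometry with 488 nm excitation read lipid droplets at 500-530 nm and cells at 575-640 nm. Percent activity was relative to 20 uM Triacsin C.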

[1] = measured here: lipid fluorescence (Fed channel) AC50, cells fed with added oleic acid
[2] = measured here: cell number channel AC50, cells fed with added oleic acid

SMILES	cell number change	AC50 [1]	AC50 [2]
COc1ccc(OCC(O)CNC2CCCC2)cc1 (stereo not drawn)	17.1%	4.11 µM [rising, full curve]	
CNc1nc2c(C)cccn2c(=O)c1C=NCc1ccccc1	136%		3.66 µM [rising, full curve]
O=C(C1=C(O)C(=O)N(c2nc3ccc(Cl)cc3s2)C1c1ccco1)c1ccco1 (stereo not drawn)	13.8%	0.206 µM [rising, full curve, poor fit]	0.291 µM [rising, full curve, poor fit]
O=C(CCN1CCN(c2ccccc2)CC1)Nc1ccc(Cl)cc1	-35.2%	5.17 µM [falling, full curve]	4.11 µM [falling, full curve, poor fit]
CN1CCCC(OC(=O)c2cccc(Cl)c2)C1 (stereo not drawn)	-55%		29.1 µM [falling, single point]
CN1C(=O)C(C)(C)c2cc(S(=O)(=O)NCc3ccc(C(=O)NCc4ccco4)cc3)ccc21	20.7%	13 µM [rising, partial curve]	
Cc1cc(=O)oc(C)c1C(=O)NCCNC(=O)c1c(C)cc(=O)oc1C	-20.8%	14.6 µM [falling, partial curve]	6.51 µM [falling, single point]
O=C(Nc1ccc(F)cc1)c1ccc2nc[nH]c2c1	44.2%	0.103 µM [rising, full curve, poor fit]	0.00517 µM [rising, full curve, poor fit]
COCCCn1cc(C(=O)c2ccccc2OCC(=O)Nc2cccc(F)c2)cc(C#N)c1=O	22.6%		
Cn1cc(/C=C(\NC(=O)c2ccccc2Cl)C(=O)NCCCN2CCOCC2)c2ccccc21	6.13%	18.4 µM [rising, single point]	
O=C1[C@@H]2Cc3c([nH]c4ccccc34)C(c3cccc([N+](=O)[O-])c3)N2C(=O)CN1C1CCN(Cc2ccccc2)CC1 (stereo partly drawn)	-45.6%	11.6 µM [falling, partial curve]	13 µM [falling, partial curve]
CC1CCCC(NC(=O)CNCc2ccccc2F)C1C (stereo not drawn)	12.5%	23.1 µM [falling, partial curve]	4.61 µM [falling, single point]
Cc1ccc(C(C)NC(=O)CSc2ccc(S(=O)(=O)N3CCOCC3)cn2)cc1C (stereo not drawn)	5.33%	0.651 µM [falling, single point]	
C#CCOCCOCCOCCNc1nc(N2CCN(C(=O)CCCCCCCCCCNC(=O)Cn3cc(CCCCCN)nn3)CC2)nc(N2CCN(C(=O)CCCCCCCCCCNC(=O)[C@@H]([C@H](C)O)n3cc(C)nn3)CC2)n1	-54.6%		29.1 µM [falling, single point]

Copied from the list.
Cn1cc(/C=C(\NC(=O)c2ccccc2Cl)C(=O)NCCCN2CCOCC2)c2ccccc21 | cell number change: 6.13%
O=C(CCN1CCN(c2ccccc2)CC1)Nc1ccc(Cl)cc1 | AC50 [1]: 5.17 µM [falling, full curve]

Source: PubChem BioAssay AID2685 (National Center for Advancing Translational Sciences (NCATS), 2010)
